Data: article PMC10415273
These are yes or no findings as the source states them, for the method shown. Some entries that bind do so weakly or less than the wild type.

Molecular target: T1, endogenous mouse MAVS (mouse (endogenous in MEF)), Q8VCF0
T1 chain: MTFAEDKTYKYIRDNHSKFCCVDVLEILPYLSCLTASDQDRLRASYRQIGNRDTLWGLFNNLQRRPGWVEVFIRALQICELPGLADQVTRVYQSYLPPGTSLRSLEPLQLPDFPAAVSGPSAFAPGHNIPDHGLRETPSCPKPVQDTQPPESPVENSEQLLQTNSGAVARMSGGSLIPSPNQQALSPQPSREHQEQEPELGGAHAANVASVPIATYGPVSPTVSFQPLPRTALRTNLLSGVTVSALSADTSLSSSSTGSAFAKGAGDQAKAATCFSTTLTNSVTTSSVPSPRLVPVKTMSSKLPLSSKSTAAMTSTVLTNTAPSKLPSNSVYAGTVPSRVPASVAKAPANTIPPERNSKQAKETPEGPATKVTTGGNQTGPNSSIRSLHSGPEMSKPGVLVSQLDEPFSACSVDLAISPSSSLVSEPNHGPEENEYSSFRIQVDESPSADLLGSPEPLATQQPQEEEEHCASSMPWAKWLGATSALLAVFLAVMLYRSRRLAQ
Test: SDD-AGE
Conditions: remark: other sources report otherwise

binding: binds
B1: endogenous mouse MAVS, Q8VCF0 1-503 (protein)
chain: MTFAEDKTYKYIRDNHSKFCCVDVLEILPYLSCLTASDQDRLRASYRQIGNRDTLWGLFNNLQRRPGWVEVFIRALQICELPGLADQVTRVYQSYLPPGTSLRSLEPLQLPDFPAAVSGPSAFAPGHNIPDHGLRETPSCPKPVQDTQPPESPVENSEQLLQTNSGAVARMSGGSLIPSPNQQALSPQPSREHQEQEPELGGAHAANVASVPIATYGPVSPTVSFQPLPRTALRTNLLSGVTVSALSADTSLSSSSTGSAFAKGAGDQAKAATCFSTTLTNSVTTSSVPSPRLVPVKTMSSKLPLSSKSTAAMTSTVLTNTAPSKLPSNSVYAGTVPSRVPASVAKAPANTIPPERNSKQAKETPEGPATKVTTGGNQTGPNSSIRSLHSGPEMSKPGVLVSQLDEPFSACSVDLAISPSSSLVSEPNHGPEENEYSSFRIQVDESPSADLLGSPEPLATQQPQEEEEHCASSMPWAKWLGATSALLAVFLAVMLYRSRRLAQ
